For series [1], the target named is Lysozyme (in egg white extract) (UniProt P00698). Kind of series: binding assay. The settings on record: protein in an extract, protein details: egg white or egg-containing food.
For series [2], the target named is T1, Ara h 1 (peanut flour protein) (Arachis hypogaea) (UniProt P43238).
T1 sequence (looked up, limits assumed): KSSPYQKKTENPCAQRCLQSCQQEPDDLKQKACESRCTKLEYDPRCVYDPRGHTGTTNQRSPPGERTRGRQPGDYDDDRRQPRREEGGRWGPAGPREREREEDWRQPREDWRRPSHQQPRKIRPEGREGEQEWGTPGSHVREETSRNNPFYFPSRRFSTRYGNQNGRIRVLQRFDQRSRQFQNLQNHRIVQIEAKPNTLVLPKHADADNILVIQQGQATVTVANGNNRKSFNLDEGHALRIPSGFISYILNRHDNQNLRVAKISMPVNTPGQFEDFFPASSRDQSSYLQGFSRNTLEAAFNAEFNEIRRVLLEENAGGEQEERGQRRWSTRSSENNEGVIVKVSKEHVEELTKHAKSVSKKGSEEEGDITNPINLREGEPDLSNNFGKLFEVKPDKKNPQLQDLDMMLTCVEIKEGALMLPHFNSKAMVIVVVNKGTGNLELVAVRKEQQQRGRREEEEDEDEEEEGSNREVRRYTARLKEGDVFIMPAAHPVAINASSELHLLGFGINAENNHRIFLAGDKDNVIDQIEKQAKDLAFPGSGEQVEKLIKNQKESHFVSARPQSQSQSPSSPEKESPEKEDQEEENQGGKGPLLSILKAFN
Kind of series: binding assay. The settings on record: fluorescence turn-on; peanut flour down to 1 ppm in mug cake; K buffer; protein in an extract; protein details: pure peanut flour; label: 5'-fluorescein, 3'-Dabcyl; single-stranded DNA.

Where [3] appears, read: egg white (protein mixture) spiked in mug cake, label: 5'-fluorescein, 3'-Dabcyl, single-stranded DNA.

At least one result comes from cells or an extract, where the contact may be indirect. For part of these data: Negatives hold for the conditions tested. For part of these data: Protein sequences can lack the tags named with them.

For the sequence “TGCAGCTAAGCAGGCGGCTCACAAAACCATTCGCATGCGGC / CTTAGCTGCA [SPN-E*]”, the binding result in series [1] (fluorescence turn-on, egg white diluted 1:20000, 100 uM SPN, folded or branched DNA) is given as “binds”.

For “TGCAGCTAAGCAGGCGGCTCACAAAACCATTCGCATGCGGCGCTGC [SPN-E]”, in series [1] (fluorescence turn-on, egg white diluted 1:20, label: 5'-fluorescein, 3'-DABCYL, single-stranded DNA), the binding result was “binds”. With “TGCAGCTAAGCAGGCGGCTCACAAAACCATTCGCATGCGGCGCTGCA [MB6]”, in series [1] (fluorescence turn-on, egg white in K buffer, decreased in P+ buffer, label: 5'-fluorescein, 3'-Dabcyl, single-stranded DNA), the binding result is recorded as “binds”. With “TCGCACATTCCGCTTCTACCGGGGGGGTCGAGCTGAGTGGATGCGAATCTGTGGGTGGGCCGTAAGTCCGTGTGTGCGAAAATGTGCGA [MB9]”, the binding result in series [2] was “binds”; in series [1] (setting [3]), “no binding”.

Regarding “TGCAGCTAAGCAGGCGGCTCACAAAACCATTCGCATGCGGCTGCA [MB4]”, the binding result in series [1] (fluorescence turn-on, egg white in K buffer (PBS pH 8.0, 10 mM MgCl2, 50 mM KCl, 100 mM NaCl, detergents), label: 5'-fluorescein, 3'-Dabcyl, single-stranded DNA) was “binds”. For “TGCAGCTAAGCAGGCGGCTCACAAAACCATTCGCATGCGGCCTGCA [MB5]”, in series [1] (fluorescence turn-on, egg white in P+, P-, K and T buffers, label: 5'-fluorescein, 3'-Dabcyl, single-stranded DNA), the binding result is on record as “binds”. Turning to “TCGCACATTCCGCTTCTACCGGGGGGGTCGAGCTGAGTGGATGCGAATCTGTGGGTGGGCCGTAAGTCCGTGTGTGCGAATGTGCGA [MB7]”, the binding result is recorded as “binds” in series [2] and “no binding” in series [1] (setting [3]).

Values taken from patent publication US20160251703.
